The list shows a part of the results.
Tests used:
Test in all cases: log2 fold change, soluble protein after heating vs DMSO (PISA); higher = thermal stabilisation; K562 cells, 10 uM, 30 min; active = over 0.2 and 3.5 SD of the protein, either way, in both replicates (recomputed)
bafetinib = compound: Cc1ccc(NC(=O)c2ccc(CN3CC[C@H](N(C)C)C3)c(C(F)(F)F)c2)cc1Nc1nccc(-c2cncnc2)n1 [bafetinib]
Procedure, shortened: (§1)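 K562 cells at 2×10^6 cells/mL were exposed to 10 μM compound for 30 min, then aliquots were heated for 3 min across 48°C-58°C, pooled, and extracted in PBS containing 0.5% NP-40 at 4°C. The supernatant after 21,000xg for 90 min was taken as soluble protein and measured by TMTpro 16plex LC-MS/MS with channel sums equalised. Thermal stability is reported relative to control samples, with values from duplicates. Fold changes are given on a log2 scale.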

Sequences of proteins named here, by UniProt entry; tags and fusion partners are left off. A change or cut given only in a name is not applied to a line headed by its entry.
UniProt Q9BRT6: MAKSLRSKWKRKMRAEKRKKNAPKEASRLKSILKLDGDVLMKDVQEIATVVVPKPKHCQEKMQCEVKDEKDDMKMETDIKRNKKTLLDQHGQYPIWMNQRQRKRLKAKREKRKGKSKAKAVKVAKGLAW
UniProt Q8N1G4: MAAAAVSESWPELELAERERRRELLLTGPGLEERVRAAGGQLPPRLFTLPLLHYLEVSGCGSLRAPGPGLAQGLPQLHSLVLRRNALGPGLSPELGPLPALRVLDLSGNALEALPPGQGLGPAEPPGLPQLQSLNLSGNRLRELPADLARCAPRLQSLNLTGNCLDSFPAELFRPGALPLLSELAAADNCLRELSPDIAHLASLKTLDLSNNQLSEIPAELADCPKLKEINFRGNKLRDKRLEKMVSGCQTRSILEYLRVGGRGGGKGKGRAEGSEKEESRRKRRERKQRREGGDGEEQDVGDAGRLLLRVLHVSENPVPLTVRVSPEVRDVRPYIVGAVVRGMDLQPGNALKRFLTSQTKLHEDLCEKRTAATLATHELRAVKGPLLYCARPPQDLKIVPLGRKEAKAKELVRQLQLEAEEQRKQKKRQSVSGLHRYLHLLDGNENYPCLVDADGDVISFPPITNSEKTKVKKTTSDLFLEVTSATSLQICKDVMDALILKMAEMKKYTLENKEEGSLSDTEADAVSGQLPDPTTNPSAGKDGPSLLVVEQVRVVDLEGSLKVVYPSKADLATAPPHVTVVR
UniProt Q8NF37: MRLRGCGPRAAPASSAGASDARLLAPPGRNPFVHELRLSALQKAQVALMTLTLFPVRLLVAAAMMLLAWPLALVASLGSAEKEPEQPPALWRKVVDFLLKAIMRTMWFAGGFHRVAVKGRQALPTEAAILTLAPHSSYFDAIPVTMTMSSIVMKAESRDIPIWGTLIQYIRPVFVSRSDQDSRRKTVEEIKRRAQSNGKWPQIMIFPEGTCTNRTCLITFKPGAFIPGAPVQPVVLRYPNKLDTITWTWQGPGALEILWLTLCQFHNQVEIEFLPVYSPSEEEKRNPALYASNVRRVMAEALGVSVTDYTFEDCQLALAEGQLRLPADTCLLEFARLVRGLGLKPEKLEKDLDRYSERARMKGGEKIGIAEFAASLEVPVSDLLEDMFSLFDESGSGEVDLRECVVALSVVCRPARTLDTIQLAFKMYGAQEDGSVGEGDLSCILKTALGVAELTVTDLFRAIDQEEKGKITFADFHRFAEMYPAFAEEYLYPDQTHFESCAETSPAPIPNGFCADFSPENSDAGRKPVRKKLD
UniProt P07195, whole entry, looked up: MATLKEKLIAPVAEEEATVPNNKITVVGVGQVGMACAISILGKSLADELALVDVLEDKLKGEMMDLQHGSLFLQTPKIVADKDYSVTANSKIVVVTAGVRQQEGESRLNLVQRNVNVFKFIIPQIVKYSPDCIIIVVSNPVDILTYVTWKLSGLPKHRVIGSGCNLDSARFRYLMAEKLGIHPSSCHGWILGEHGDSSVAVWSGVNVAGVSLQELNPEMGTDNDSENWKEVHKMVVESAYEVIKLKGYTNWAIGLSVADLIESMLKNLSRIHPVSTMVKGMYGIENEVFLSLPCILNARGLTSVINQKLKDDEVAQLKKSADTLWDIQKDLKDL
UniProt Q8NC56: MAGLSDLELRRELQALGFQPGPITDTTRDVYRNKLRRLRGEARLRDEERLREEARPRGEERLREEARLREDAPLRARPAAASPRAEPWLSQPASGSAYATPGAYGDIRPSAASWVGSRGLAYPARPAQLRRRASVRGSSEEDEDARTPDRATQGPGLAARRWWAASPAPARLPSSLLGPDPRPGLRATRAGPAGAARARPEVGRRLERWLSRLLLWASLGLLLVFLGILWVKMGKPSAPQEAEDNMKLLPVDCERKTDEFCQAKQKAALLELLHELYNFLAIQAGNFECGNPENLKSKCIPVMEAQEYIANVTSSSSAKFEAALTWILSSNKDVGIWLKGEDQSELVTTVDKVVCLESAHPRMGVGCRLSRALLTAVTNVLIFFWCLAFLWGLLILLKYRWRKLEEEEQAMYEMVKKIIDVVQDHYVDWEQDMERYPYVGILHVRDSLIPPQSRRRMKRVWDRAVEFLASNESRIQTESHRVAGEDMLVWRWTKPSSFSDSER
UniProt Q96EM0: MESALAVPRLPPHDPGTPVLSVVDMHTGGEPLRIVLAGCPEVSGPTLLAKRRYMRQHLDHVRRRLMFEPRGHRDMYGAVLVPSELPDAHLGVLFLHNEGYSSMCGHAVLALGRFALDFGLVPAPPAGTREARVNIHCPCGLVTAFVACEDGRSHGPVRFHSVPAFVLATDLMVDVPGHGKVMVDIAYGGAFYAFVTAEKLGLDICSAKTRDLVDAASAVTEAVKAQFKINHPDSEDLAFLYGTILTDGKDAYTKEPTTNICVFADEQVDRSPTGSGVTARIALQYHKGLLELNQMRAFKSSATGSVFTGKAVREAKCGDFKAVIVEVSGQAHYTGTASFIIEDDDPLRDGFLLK
UniProt Q9H0V9: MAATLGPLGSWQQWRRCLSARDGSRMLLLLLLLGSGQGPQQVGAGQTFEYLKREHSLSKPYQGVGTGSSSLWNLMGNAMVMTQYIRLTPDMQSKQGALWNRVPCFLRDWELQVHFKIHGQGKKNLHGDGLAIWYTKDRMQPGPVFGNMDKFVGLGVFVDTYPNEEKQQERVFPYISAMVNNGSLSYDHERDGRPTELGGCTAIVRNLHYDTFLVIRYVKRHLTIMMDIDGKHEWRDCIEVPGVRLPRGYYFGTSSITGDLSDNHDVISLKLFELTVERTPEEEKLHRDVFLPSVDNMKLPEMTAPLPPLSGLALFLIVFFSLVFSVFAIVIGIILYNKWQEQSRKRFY
UniProt Q14739: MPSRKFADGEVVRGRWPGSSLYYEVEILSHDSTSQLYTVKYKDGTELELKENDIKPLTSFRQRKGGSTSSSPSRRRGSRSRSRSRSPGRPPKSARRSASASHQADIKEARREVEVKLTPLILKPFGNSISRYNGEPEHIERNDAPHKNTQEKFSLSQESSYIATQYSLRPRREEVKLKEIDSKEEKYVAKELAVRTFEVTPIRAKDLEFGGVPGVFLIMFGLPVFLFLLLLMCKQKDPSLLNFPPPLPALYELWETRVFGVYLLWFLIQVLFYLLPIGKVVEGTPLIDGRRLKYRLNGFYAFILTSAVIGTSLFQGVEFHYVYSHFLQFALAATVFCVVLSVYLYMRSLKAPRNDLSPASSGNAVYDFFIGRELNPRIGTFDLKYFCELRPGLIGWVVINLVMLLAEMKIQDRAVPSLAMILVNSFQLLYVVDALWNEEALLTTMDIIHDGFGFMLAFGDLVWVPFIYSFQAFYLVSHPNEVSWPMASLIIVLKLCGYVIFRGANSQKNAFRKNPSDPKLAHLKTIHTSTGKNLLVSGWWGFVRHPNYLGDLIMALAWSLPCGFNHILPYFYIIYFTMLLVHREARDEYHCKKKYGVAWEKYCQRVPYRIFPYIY
UniProt P18858, whole entry, looked up: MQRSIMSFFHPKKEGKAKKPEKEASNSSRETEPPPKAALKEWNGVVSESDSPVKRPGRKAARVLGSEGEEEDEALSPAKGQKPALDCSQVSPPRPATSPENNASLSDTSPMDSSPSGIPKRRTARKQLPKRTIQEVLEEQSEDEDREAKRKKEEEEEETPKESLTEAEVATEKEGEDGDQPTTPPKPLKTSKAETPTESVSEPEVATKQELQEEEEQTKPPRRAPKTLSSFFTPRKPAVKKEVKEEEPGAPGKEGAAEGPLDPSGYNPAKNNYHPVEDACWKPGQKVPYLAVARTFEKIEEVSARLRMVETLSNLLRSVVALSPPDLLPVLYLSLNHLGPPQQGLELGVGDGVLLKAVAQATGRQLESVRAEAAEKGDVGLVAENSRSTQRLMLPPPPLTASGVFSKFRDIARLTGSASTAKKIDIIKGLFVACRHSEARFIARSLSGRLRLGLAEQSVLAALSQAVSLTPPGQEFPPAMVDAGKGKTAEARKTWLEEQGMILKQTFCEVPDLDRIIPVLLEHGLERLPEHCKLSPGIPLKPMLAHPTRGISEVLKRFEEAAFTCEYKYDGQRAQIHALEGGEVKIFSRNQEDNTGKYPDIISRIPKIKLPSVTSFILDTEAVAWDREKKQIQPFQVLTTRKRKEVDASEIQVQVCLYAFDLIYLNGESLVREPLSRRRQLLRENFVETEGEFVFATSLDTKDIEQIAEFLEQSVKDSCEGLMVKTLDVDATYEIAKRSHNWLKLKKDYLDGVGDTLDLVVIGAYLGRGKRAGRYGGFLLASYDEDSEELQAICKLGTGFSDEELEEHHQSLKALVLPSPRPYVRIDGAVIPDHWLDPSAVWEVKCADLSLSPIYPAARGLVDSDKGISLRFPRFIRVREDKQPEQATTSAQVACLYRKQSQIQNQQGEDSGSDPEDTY
UniProt P02545: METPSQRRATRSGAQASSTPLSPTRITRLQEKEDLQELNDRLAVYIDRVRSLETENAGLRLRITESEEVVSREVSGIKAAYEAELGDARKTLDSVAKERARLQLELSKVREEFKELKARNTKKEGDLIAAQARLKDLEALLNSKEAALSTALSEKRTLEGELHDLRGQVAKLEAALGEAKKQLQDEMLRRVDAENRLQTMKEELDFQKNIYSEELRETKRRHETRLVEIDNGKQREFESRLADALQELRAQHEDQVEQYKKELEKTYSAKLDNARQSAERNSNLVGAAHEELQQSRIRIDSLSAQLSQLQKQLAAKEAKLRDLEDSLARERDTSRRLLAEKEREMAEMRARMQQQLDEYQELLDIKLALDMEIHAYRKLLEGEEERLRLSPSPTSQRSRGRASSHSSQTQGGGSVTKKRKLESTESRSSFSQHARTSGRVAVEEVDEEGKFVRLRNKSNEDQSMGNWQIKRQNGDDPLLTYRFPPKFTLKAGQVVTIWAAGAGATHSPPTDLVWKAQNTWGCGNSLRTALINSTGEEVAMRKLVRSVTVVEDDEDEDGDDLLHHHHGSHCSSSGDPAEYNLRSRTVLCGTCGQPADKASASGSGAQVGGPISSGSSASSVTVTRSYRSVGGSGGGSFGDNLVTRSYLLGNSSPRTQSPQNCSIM
UniProt Q96EK9: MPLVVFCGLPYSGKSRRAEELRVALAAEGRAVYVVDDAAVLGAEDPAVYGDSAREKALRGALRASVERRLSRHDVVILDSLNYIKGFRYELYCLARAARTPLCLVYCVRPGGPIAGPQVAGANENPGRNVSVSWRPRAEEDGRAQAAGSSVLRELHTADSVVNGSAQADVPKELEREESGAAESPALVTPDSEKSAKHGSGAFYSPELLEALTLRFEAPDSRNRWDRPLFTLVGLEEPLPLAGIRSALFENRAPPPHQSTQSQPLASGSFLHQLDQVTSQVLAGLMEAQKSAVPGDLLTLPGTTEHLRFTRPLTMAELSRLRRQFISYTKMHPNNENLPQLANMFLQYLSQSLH
UniProt Q9NS86: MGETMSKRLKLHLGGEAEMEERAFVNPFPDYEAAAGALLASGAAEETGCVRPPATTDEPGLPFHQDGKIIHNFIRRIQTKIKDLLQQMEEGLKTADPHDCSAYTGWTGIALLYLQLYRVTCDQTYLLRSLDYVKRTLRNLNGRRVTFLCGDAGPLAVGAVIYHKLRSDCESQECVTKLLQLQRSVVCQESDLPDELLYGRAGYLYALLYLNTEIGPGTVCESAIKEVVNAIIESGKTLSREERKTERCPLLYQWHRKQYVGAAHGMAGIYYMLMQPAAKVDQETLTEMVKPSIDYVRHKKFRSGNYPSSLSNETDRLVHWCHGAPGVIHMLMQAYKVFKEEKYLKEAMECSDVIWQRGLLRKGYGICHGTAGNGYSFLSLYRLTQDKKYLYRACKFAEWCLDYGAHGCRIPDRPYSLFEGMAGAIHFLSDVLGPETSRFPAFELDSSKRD
UniProt Q6YP21: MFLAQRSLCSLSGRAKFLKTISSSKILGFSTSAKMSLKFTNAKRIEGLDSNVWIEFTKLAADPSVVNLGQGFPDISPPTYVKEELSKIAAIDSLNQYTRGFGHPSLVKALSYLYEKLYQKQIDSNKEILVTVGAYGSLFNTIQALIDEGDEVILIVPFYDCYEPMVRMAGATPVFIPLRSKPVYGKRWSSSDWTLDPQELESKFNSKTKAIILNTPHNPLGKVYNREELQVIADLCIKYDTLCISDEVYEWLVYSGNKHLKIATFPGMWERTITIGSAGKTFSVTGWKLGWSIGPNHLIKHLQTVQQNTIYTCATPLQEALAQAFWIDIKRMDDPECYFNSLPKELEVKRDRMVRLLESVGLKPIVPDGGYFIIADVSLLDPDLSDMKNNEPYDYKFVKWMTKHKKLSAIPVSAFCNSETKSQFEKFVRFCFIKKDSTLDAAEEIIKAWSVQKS

[1] = compound: Cc1cccc(CC(=O)N2CCc3c2ccc(-c2cn(C)c4ncnc(N)c24)c3F)n1
Procedure, shortened: as §1

nilotinib = compound: Cc1cn(-c2cc(NC(=O)c3ccc(C)c(Nc4nccc(-c5cccnc5)n4)c3)cc(C(F)(F)F)c2)cn1 [nilotinib]
Procedure, shortened: as §1

[2] = compound: Cc1nc(Nc2n[nH]c3c2CN(C(=O)N[C@H](CN(C)C)c2ccccc2)C3(C)C)c2sccc2n1
Procedure, shortened: as §1

dasatinib = compound: Cc1nc(Nc2ncc(C(=O)Nc3c(C)cccc3Cl)s2)cc(N2CCN(CCO)CC2)n1 [dasatinib]
Procedure, shortened: as §1

[3] = compound: Cc1ncc(-c2ccnc(Nc3ccc(S(C)(=O)=O)cc3)n2)n1C(C)C
Procedure, shortened: as §1

[4] = compound: Cn1cc(-c2ccc3c(c2)CCN3C(=O)Cc2cccc(C(F)(F)F)c2)c2c(N)ncnc21
Procedure, shortened: as §1

[5] = compound: Cn1cc(-c2ccc3nnc(C(F)(F)c4ccc5ncccc5c4)n3n2)cn1
Procedure, shortened: as §1

tipifarnib = compound: Cn1cncc1[C@@](N)(c1ccc(Cl)cc1)c1ccc2c(c1)c(-c1cccc(Cl)c1)cc(=O)n2C [tipifarnib]
Procedure, shortened: as §1

mubritinib = compound: FC(F)(F)c1ccc(/C=C/c2nc(COc3ccc(CCCCn4ccnn4)cc3)co2)cc1 [mubritinib]
Procedure, shortened: as §1

[6] = compound: NC(=O)Nc1cc(-c2cccc(F)c2)sc1C(=O)N[C@H]1CCCNC1
Procedure, shortened: as §1

[7] = compound: NC(=O)c1cnc(N[C@@H]2CCCC[C@@H]2N)nc1Nc1cccc(-n2nccn2)c1
Procedure, shortened: as §1

[8] = compound: NC1(c2ccc(-c3nc4ccn5c(=O)[nH]nc5c4cc3-c3ccccc3)cc2)CCC1
Procedure, shortened: as §1

[9] = compound: NCC(=O)Nc1ccc(-n2nc(C(F)(F)F)cc2-c2ccc3c(ccc4ccccc43)c2)cc1
Procedure, shortened: as §1

entinostat = compound: Nc1ccccc1NC(=O)c1ccc(CNC(=O)OCc2cccnc2)cc1 [entinostat]
Procedure, shortened: as §1

vorinostat = compound: O=C(CCCCCCC(=O)Nc1ccccc1)NO [vorinostat]
Procedure, shortened: as §1

citarinostat = compound: O=C(CCCCCCNC(=O)c1cnc(N(c2ccccc2)c2ccccc2Cl)nc1)NO [citarinostat]
Procedure, shortened: as §1

silmitasertib = compound: O=C(O)c1ccc2c(c1)nc(Nc1cccc(Cl)c1)c1ccncc12 [silmitasertib]
Procedure, shortened: as §1

[10] = compound: O=C1NC(=O)C(c2cnc3ccccn23)=C1c1cn2c3c(cc(F)cc13)CN(C(=O)N1CCCCC1)CC2
Procedure, shortened: as §1

[11] = compound: c1cc(OCCN2CCCCC2)cc(-c2n[nH]c3ccc(-c4nnc[nH]4)cc23)c1
Procedure, shortened: as §1

Measured: log2 fold change

LLPH (UniProt Q9BRT6)
inactive: bafetinib 0.491 | [1] 0.034 | nilotinib -0.059 | [2] 0.145 | dasatinib 0.223 | [3] -0.034 | [4] -0.4 | [5] -0.295 | tipifarnib -0.157 | mubritinib -0.325 | [6] 0.159 | [7] 0.169 | [8] 0.371 | [9] 0.191 | entinostat -0.165 | vorinostat -0.075 | citarinostat -0.169 | silmitasertib 0.263 | [10] 0.282 | [11] -0.216

LRRC47 (UniProt Q8N1G4)
inactive: bafetinib 0.016 | [1] -0.001 | nilotinib 0.002 | [2] 0.018 | dasatinib -0.044 | [3] 0.013 | [4] 0.048 | [5] 0.03 | tipifarnib -0.066 | mubritinib 0.04 | [6] 0.014 | [7] -0.019 | [8] -0.025 | [9] 0.053 | entinostat -0.016 | vorinostat 0.016 | citarinostat -0.006 | silmitasertib -0.039 | [10] -0.004 | [11] 0.007

LPCAT1 (UniProt Q8NF37)
inactive: bafetinib -0.073 | [1] 0.054 | nilotinib -0.063 | [2] -0.008 | dasatinib -0.053 | [3] -0.026 | [4] 0.048 | [5] 0.02 | tipifarnib 0.022 | mubritinib 0.025 | [6] -0.073 | [7] -0.026 | [8] -0.097 | [9] -0.031 | entinostat 0.02 | vorinostat 0.019 | citarinostat 0.016 | silmitasertib 0.015 | [10] -0.015 | [11] -0.058

LDHB (UniProt P07195)
inactive: bafetinib 0.01 | [1] 0.035 | nilotinib 0.015 | [2] 0.017 | dasatinib 0.025 | [3] 0 | [4] 0.021 | [5] -0.004 | tipifarnib -0.019 | mubritinib 0.059 | [6] 0.012 | [7] 0.012 | [8] 0.056 | [9] 0 | entinostat -0.021 | vorinostat 0.029 | citarinostat 0 | silmitasertib -0.02 | [10] -0.024 | [11] -0.013

LEMD2 (UniProt Q8NC56)
inactive: bafetinib -0.036 | [1] -0.008 | nilotinib -0.035 | [2] -0.123 | dasatinib -0.079 | [3] 0.011 | [4] 0.089 | [5] 0.008 | tipifarnib -0.045 | mubritinib -0.021 | [6] 0.008 | [7] -0.139 | [8] -0.112 | [9] -0.157 | entinostat 0.004 | vorinostat 0.04 | citarinostat 0.058 | silmitasertib -0.044 | [10] -0.02 | [11] -0.046

L3HYPDH (UniProt Q96EM0)
inactive: bafetinib -0.009 | [1] -0.019 | nilotinib 0.051 | [2] 0.004 | dasatinib 0.05 | [3] 0.026 | [4] 0.141 | [5] 0.031 | tipifarnib -0.028 | mubritinib 0.076 | [6] -0.035 | [7] 0 | [8] -0.096 | [9] 0.031 | entinostat 0.004 | vorinostat 0.023 | citarinostat 0.018 | silmitasertib -0.001 | [10] 0.009 | [11] -0.047

Quoted at random: 2 entries already listed, in no set order.
LPCAT1 (UniProt Q8NF37)
inactive: bafetinib -0.073 | [1] 0.054 | nilotinib -0.063 | [2] -0.008 | dasatinib -0.053 | [3] -0.026 | [4] 0.048 | [5] 0.02 | tipifarnib 0.022 | mubritinib 0.025 | [6] -0.073 | [7] -0.026 | [8] -0.097 | [9] -0.031 | entinostat 0.02 | vorinostat 0.019 | citarinostat 0.016 | silmitasertib 0.015 | [10] -0.015 | [11] -0.058

LLPH (UniProt Q9BRT6)
inactive: bafetinib 0.491 | [1] 0.034 | nilotinib -0.059 | [2] 0.145 | dasatinib 0.223 | [3] -0.034 | [4] -0.4 | [5] -0.295 | tipifarnib -0.157 | mubritinib -0.325 | [6] 0.159 | [7] 0.169 | [8] 0.371 | [9] 0.191 | entinostat -0.165 | vorinostat -0.075 | citarinostat -0.169 | silmitasertib 0.263 | [10] 0.282 | [11] -0.216

Continued.

LMAN2L isoform 2 (UniProt Q9H0V9)
inactive: bafetinib -0.042 | [1] 0.018 | nilotinib -0.006 | [2] 0.028 | dasatinib 0.017 | [3] -0.012 | [4] 0.016 | [5] 0.015 | tipifarnib 0.006 | mubritinib 0.048 | [6] 0.004 | [7] -0.001 | [8] -0.055 | [9] -0.007 | entinostat -0.009 | vorinostat 0.016 | citarinostat 0.017 | silmitasertib 0.048 | [10] -0.035 | [11] -0.095

LBR (UniProt Q14739)
inactive: bafetinib 0.113 | [1] 0.101 | nilotinib -0.201 | [2] -0.007 | dasatinib -0.017 | [3] -0.018 | [4] 0.041 | [5] 0.012 | tipifarnib -0.141 | mubritinib 0.026 | [6] 0.025 | [7] -0.008 | [8] 0.004 | [9] -0.003 | entinostat 0.023 | vorinostat 0.021 | citarinostat -0.021 | silmitasertib -0.085 | [10] 0.012 | [11] 0.082

LARP1 (UniProt Q6PKG0)
inactive: bafetinib 0.049 | [1] 0.024 | nilotinib -0.063 | [2] -0.014 | dasatinib 0.014 | [3] -0.028 | [4] -0.067 | [5] -0.043 | tipifarnib 0.047 | mubritinib -0.011 | [6] -0.064 | [7] 0.002 | [8] 0.051 | [9] -0.04 | entinostat 0.02 | vorinostat 0.043 | citarinostat -0.025 | silmitasertib 0.028 | [10] 0.113 | [11] -0.133

LIG1 (UniProt P18858)
inactive: bafetinib 0.028 | [1] 0.043 | nilotinib -0.113 | [2] 0.037 | dasatinib -0.262 | [3] -0.092 | [4] 0.044 | [5] 0.194 | tipifarnib -0.094 | mubritinib 0.037 | [6] 0.027 | [7] -0.14 | [8] -0.179 | [9] -0.09 | entinostat 0.077 | vorinostat 0.085 | citarinostat 0.086 | silmitasertib 0.041 | [10] -0.183 | [11] 0.012

LONP1 (UniProt P36776)
inactive: bafetinib -0.002 | [1] 0 | nilotinib 0.011 | [2] 0.019 | dasatinib 0.029 | [3] 0.001 | [4] 0.006 | [5] 0.014 | tipifarnib 0.028 | mubritinib -0.006 | [6] -0.006 | [7] -0.008 | [8] -0.024 | [9] -0.009 | entinostat -0.008 | vorinostat -0.022 | citarinostat 0.006 | silmitasertib -0.005 | [10] -0.016 | [11] -0.039

LMNA (UniProt P02545)
inactive: bafetinib -0.011 | [1] -0.025 | nilotinib 0.065 | [2] -0.116 | dasatinib 0.097 | [3] -0.179 | [4] -0.04 | [5] -0.043 | tipifarnib 0.064 | mubritinib -0.069 | [6] 0.205 | [7] -0.013 | [8] 0.024 | [9] 0.047 | entinostat -0.004 | vorinostat -0.026 | citarinostat 0.039 | silmitasertib 0.015 | [10] -0.075 | [11] -0.068

KTI12 (UniProt Q96EK9)
inactive: bafetinib 0.06 | [1] 0.036 | nilotinib 0.083 | [2] -0.002 | dasatinib -0.056 | [3] -0.007 | [4] 0.038 | [5] 0.034 | tipifarnib -0.048 | mubritinib 0.039 | [6] -0.052 | [7] 0.048 | [8] -0.13 | [9] 0.038 | entinostat 0.035 | vorinostat 0.043 | citarinostat 0.062 | silmitasertib -0.1 | [10] 0.026 | [11] -0.023

LANCL2 (UniProt Q9NS86)
inactive: bafetinib -0.055 | [1] -0.014 | nilotinib -0.007 | [2] 0.03 | dasatinib 0.041 | [3] 0.019 | [4] 0.018 | [5] -0.026 | tipifarnib 0.063 | mubritinib 0.037 | [6] 0.027 | [7] 0.032 | [8] -0.022 | [9] -0.042 | entinostat -0.02 | vorinostat 0.01 | citarinostat 0.035 | silmitasertib 0.001 | [10] -0.018 | [11] -0.035

KYAT3 (UniProt Q6YP21)
inactive: bafetinib -0.028 | [1] -0.027 | nilotinib -0.026 | [2] 0.016 | dasatinib 0.045 | [3] -0.013 | [4] -0.006 | [5] 0.042 | tipifarnib -0.014 | mubritinib 0.016 | [6] 0.02 | [7] 0 | [8] -0.019 | [9] -0.009 | entinostat -0.03 | vorinostat -0.002 | citarinostat 0.013 | silmitasertib 0.01 | [10] -0.025 | [11] -0.043

LRPPRC (UniProt P42704)
inactive: bafetinib -0.053 | [1] 0.117 | nilotinib -0.14 | [2] -0.721 | dasatinib -0.732 | [3] 0.016 | [4] 0.236 | [5] 0.24 | tipifarnib -0.656 | mubritinib -0.161 | [6] -0.249 | [7] -0.291 | [8] -0.676 | [9] -0.272 | entinostat 0.479 | vorinostat 0.289 | citarinostat 0.203 | silmitasertib 0.033 | [10] -0.383 | [11] -0.128
